From PMC2952586 come the findings set out here.

No constants are given. Whether binding was seen depends on the method and setting. Binding seen in cells or lysates may run through a third protein. Some binding calls cover weakened binding; strength is not graded here.

For experiment [1], the target named is T1, TIA-1::RFP (UniProt P31483).
T1 sequence: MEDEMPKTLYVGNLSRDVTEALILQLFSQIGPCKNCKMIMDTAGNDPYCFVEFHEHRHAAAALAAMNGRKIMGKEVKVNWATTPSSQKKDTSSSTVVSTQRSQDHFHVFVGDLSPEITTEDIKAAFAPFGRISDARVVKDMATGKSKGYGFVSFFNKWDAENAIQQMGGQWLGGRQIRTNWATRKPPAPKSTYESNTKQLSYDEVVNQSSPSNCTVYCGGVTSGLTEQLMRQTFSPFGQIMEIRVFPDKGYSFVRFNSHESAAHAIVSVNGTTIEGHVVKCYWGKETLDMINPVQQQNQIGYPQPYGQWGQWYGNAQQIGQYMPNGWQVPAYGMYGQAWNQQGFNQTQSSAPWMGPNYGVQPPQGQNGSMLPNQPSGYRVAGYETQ
Put plainly: co-IP; as a1, but lysates treated with RNase A (50 µg/ml) for 30 min at 37°C before the immunoprecipitation.

Experiment [2] deals with T1, TIA-1::RFP. Put plainly: co-IP; lysates of HEK 293 cells transfected 48 hrs with TDP-43::EGFP and/or TIA-1::RFP, not treated with RNase; immunoprecipitated with antibody to TIA-1, blotted with antibody to TDP-43; co-IP buffer 20 mM Tris-HCl pH 7.4, 150 mM NaCl, 1 mM EDTA, 1% Triton X-100.

As for “K82/84A TDP-43::EGFP (from UniProt Q13148-1 1-414)”, the binding result in experiment [1] and in experiment [2] was “binds” each time.

As for “WT TDP-43::EGFP (from UniProt Q13148-1 1-414)”, the binding entry in experiment [1] and in experiment [2] was “binds” throughout.
